Literature values in US9283280B2, “Compositions for drug administration” (Aegis Therapeutics, LLC, priority 2008, dated 2016).
At least one structure is not confirmed: it was looked up by name or label, or the drawing left a doubt.

Conditions: FAO/WHO report; cited from earlier work

CCCCCCCCCCCC(=O)OC[C@H]1O[C@H](O[C@]2(CO)O[C@H](CO)[C@@H](O)[C@@H]2O)[C@H](O)[C@@H](O)[C@@H]1O [sucrose dodecanoate]
no observable adverse effect level (NOAEL): 20-30 grams/kilogram/day
